Results from patent US9360471B2, “Anti-aging agents and methods to identify them” (priority 2009, dated 2016).
For at least one compound, name, drawing or mass did not settle the structure.

Assays:
[1] = tested on: cdc13-1 cells; assay: cdc13-1 cell survival after cdc13-1p inactivation, colony formation assay; type: cell-based, budding yeast
Procedure: To induce telomere dysfunction, fresh overnight cultures of cdc13-1 were diluted into YEPD medium with the indicated concentrations of glucose or 2-deoxyglucose and incubated at 37° C. for 24 hrs. For colony formation assay, treated cells were then serially diluted 10-fold in H2O and 5 μL was spotted onto regular YEPD plates. The plates were incubated at 24° C. for survived cells to form colonies. The starting number of live-cells was also counted by this colony formation assay. (B) Nitrogen restriction inhibits cell death induced by cdc13-1p inactivation as monitored by a colony formation assay. Cells were incubated in synthetic medium (SC) or SC—N (SC without amino acids and (NH4)2SO4 as nitrogen sources) at 37° C. for 24 hrs. The number of survived cells was counted using colony formation assay as described in 1A. (C-D) Inhibition of TOR by low doses of rapamycin (labeled as Rapa) (below growth inhibition concentration) can prevent cell death induced by cdc13-1p inactivation. […] The number of survived cells was measured by the colony formation assay as in 1A. […] Cell Density (OD595) was measured at the indicated time points and plotted against the time. (E) Deterioration of growth arrested cdc13-1 cells can be delayed by low dose of rapamycin (1 nM) and glucose restriction (0.5%) as measured by counting surviving cells using the colony formation assay. […]
(A) Cells were incubated at 37° C. to inactivated cdc13-1p, in YEPD medium, YEPD+1 nM rapamycin or YEPD with 0.5% glucose. […] After being washed again, cells were stained with 100 μg/mL propidium iodide for 20 min in the dark prior to FACS (Fluorescence activated cell sorter) analysis. […] Surviving cells were counted using the colony formation assay.
The 6.7 μM PEITC, 5 mM silibinin, 1.25 mM selenite, 2.5 mM genistein, 250 μg/mL grape seed extract (GSE), 50 μg/mL EGCG, and 3 mg/mL bilberry extract (BE) were incubated with cells at 37° C. for about 30 hrs. The cell survival was measured by the colony formation assay at a permissive temperature 24° C. […]

[2] = tested on: cdc13-1 cells; assay: cdc13-1 growth curve (OD595) at 24° C.; type: cell-based, budding yeast; conditions: 0.5 and 1 nM rapamycin, YEPD
[3] = tested on: cdc13-1 cells; assay: ROS by dihydrorhodamine 123 staining and FACS in cdc13-1; type: cell-based, budding yeast; conditions: rapamycin 1 nM
[4] = tested on: cdc13-1 cells; assay: PS flipping by annexin V-FITC binding and FACS in cdc13-1; type: cell-based, budding yeast; conditions: rapamycin 1 nM
[5] = tested on: senescent WI-38 cells; assay: surviving senescent WI-38 cells by MTT staining; type: cell-based, human
[6] = tested on: WI-38 cells; assay: mitochondrial mass in WI-38 cells, MitoTracker Green FM and FACS; type: cell-based, human
[7] = tested on: Human lymphoblastoid L40 cells; assay: mitochondrial membrane potential, JC-1 staining and FACS; type: cell-based; conditions: rapamycin at low doses, two days
[8] = tested on: AMPK; assay: AMPK activation, Western blotting of phosphorylated AMPK at Thr172; type: cell-based, human; conditions: rapamycin 50 pM; data not shown
[9] = tested on: human lymphoblastoid L40; assay: mitochondrial mass in human lymphoblastoid L40, MitoTracker Green FM and FACS; type: cell-based; conditions: 2-day treatment; 10 μM LY294002, 2 μM DATS, 1 μM BITC, 1 μM PITC, 2 μg/mL resveratrol, 0.03 μM lycopene, 6.7 μM PEITC, 5 mM silibinin, 1.25 mM selenite, 2.5 mM genistein, 250 μg/mL GSE, 50 μg/mL EGCG, 3 mg/mL bilberry extract, 1 μM AITC, 50 pM rapamycin, 250 μM AICAR
From the text: Mitochondrial mass was monitored by staining the 60% Ethanol-fixed cells with MitoTracker Green FM prior to FACS analysis.

[10] = tested on: NIH3T3 cells; assay: mitochondrial mass in NIH3T3 cells treated with TPA; type: cell-based, mouse; conditions: 10 μM TPA+1 nM rapamycin, two days
Procedure: NIH3T3 cells were incubated in DMEM medium (DMEM with 10% FCS, 100 units/mL penicillin, 100 μg/mL streptomycin and 2 mM glutamine) in the presence of control DMSO, 10 μM TPA, 1 nM rapamycin, 10 μM TPA+1 nM rapamycin, 40 μM AICAR, or 10 μM TPA+40 μM AICAR at 37° C. in a humidified atmosphere consisting of 95% air and 5% CO2 for two days. Cells were then harvested by trypsin and fixed by 60% ethanol. The cells were stained with MitoTracker Greeen FM in darkness for 30 min prior to FACS analysis. The data represents the average of a triplica-experiment.

[11] = tested on: CGN cells; assay: life span of cultured cerebellar granule neuron cells, MTT assay; type: cell-based, rat
[12] = tested on: WI-38 cells; assay: MPP+ induced ROS in WI-38 cells, dehydrorhodamine 123 and FACS; type: cell-based, human; conditions: rapamycin in picomolar (pM) ranges with 200 μM MPP^+, 3 days
Procedure: MPP+ with various concentrations of rapamycin was incubated with WI-38 cells for 3 days. Cells were stained with dehydrorhodamine 123 in the dark for 30 min prior to FACS analysis.
MPP^+, an inhibitor of complex I (NADH CoQ1 reductase) in the mitochondrial respiratory chain, is a dopaminergic neurotoxin. It is commonly used to induce Parkinson's disease in […]. Human primary fibroblast WI-38 cells were treated with 200 μM MPP^+ for 3 days. Cells were then stained with dehydrorhodamine 123 in the dark for 30 min. Cells were then analyzed by FACS.

[13] = tested on: mouse; conditions: therapeutic dose of rapamycin (2.24 mg/kg) (Caccamo 2010); cited from earlier work

Compound: CO[C@H]1C[C@@H]2CC[C@@H](C)[C@@](O)(O2)C(=O)C(=O)N2CCCC[C@H]2C(=O)O[C@H]([C@H](C)C[C@@H]2CC[C@@H](O)[C@H](OC)C2)CC(=O)[C@H](C)/C=C(\C)[C@@H](O)[C@@H](OC)C(=O)[C@H](C)C[C@H](C)/C=C/C=C/C=C/1C [rapamycin]
- death of G2/M cells induced by inactivation of cdc13-1p ([1]; cells 2 hrs at 37° C. first, then rapamycin 1 nM, further 22 hrs at 37° C.): can still be prevented
- cdc13-1 cell death (colony formation assay) ([1]; rapamycin 0.3 to 1 nM, YEPD, 37° C.): prevented by rapamycin in a dose-dependent manner
- cell growth (OD595 growth curve) [2]: did not inhibit, but slightly promoted, cell growth
- ROS production by inactivation of cdc13-1p [3]: decrease ROS production
- apoptotic death monitored by phosphatidylserine (PS) flipping [4]: effectively inhibits this apoptotic death
- loss of senescent WI-38 cells (MTT) ([5]; rapamycin at a concentration higher than 500 pM): promoted cell loss
- loss of senescent WI-38 cells (MTT) ([5]; rapamycin from 10 to 100 pM, 65 days in senescence): prevented the loss of senescent WI-38 cells
- increase of mitochondrial mass and membrane potential and reduction of ROS levels in human cells ([6]; greater than 10 nM of rapamycin): appears to lose this effect
- mitochondrial mass in human fibroblasts ([6]; low doses of rapamycin, 2 days, passage 24): increased mitochondrial mass
- mitochondrial membrane potential [7]: increased mitochondrial membrane potential
- AMPK kinase activity (phosphorylated AMPK at Thr172) [8]: activated AMPK kinase activity
- mitochondrial mass [9]: increased
- mitochondrial mass decrease induced by TPA [10]: reversed this decrease
- life span of cultured CGN cells (MTT) ([11]; higher doses of rapamycin): did not have such as effect
- life span of cultured CGN cells (MTT) ([11]; rapamycin 0.2 and 2 pM, added after 7 days, read 31 days later): extends the life span
- ROS increase induced by MPP^+ [12]: significantly reduced this increase
- cognitive deficits, Aβ and tau pathology [13]: rescues cognitive deficits and ameliorates Aβ and tau pathology
